# According to paper PMC7819943, “Rice protein-binding microarrays: a tool to detect cis-acting elements near promoter regions in rice”:
# Chains of the proteins cited; added tags and fusions are not shown.
# UniProt Q0JBA9, entry or part of it: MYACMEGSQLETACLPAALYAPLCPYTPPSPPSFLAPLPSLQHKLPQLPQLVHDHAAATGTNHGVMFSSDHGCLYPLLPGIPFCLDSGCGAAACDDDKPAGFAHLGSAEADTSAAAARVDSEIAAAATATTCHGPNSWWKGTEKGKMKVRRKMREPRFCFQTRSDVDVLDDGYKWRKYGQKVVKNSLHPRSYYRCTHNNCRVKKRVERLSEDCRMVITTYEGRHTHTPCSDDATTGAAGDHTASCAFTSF
# Some of the results follow.
# Target: OsWRKY34 (Oryza sativa, UniProt Q0JBA9 1-250)
# Assay: protein-binding microarray (RPBM); PBS, 2% BSA, 51.3 ng/ul salmon testes DNA, 50 uM zinc acetate, 200 nM TF, 25 C, 1 h; high values mean tight binding
# Settings: protein: recombinant; tags: N-terminal polyhistidine and DsRed monomer fusion (pET32a); label: CyDye5-dUTP incorporated in the synthesized complementary strand; 3' TTTTT single-stranded linker to array surface; dsDNA, one strand shown
# In short: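 Transcription factors were each fused at the N-terminus to a polyhistidine tag plus DsRed and expressed in E. coli BL21-CodonPlus before Ni–NTA purification. Binding to a double-stranded custom Agilent array was carried out with 200 nM protein at 25 °C for 1 h in PBS, 2% BSA, salmon testes DNA and 50 µM zinc acetate. The binding signal is per-feature fluorescence intensity, in arbitrary units, on an Axon 4000B scanner.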
row,Sequence,binding signal
1,CATTGGGTTGGGAATGATCTTTGTACTCCCTCTGTCCCATCGGAGTCACCTAGTGCAG,11400 fluorescence intensity (a.u.)
2,CCCGCGCTCCAATTCCGTCCTTCATCCGCTCTTTGTTTTTCGGAGTCACCTAGTGCAG,14200 fluorescence intensity (a.u.)
3,CTGGCTCGCTCTCTCTCTCTCTCTCGTGGTGTGGTGTGGACGGAGTCACCTAGTGCAG,9310 fluorescence intensity (a.u.)
4,ATGACTTAAAACCTTCCGGATCTCATAGCTGCTCCAAATACGGAGTCACCTAGTGCAG,8350 fluorescence intensity (a.u.)
5,CGTCGTCTTCCTGCCGCCGCCTTCACACCGCCGCCGCGACCGGAGTCACCTAGTGCAG,11100 fluorescence intensity (a.u.)
6,TTTGTTGGTTGGTTTGACCCTTCCTAATCCTACCTTTGGTCGGAGTCACCTAGTGCAG,8160 fluorescence intensity (a.u.)
7,ACACCAAAATTTCCGTCCGCATGAGCTGCACCTGCACCAACGGAGTCACCTAGTGCAG,10300 fluorescence intensity (a.u.)
8,GGCCCGGTTCTTTTCTCCTTATGGCACGAACACATTTTTTCGGAGTCACCTAGTGCAG,9840 fluorescence intensity (a.u.)
9,ACTCCCTGATCTTTAGCTAAACCTTTCATTCTCAGGTTATCGGAGTCACCTAGTGCAG,10700 fluorescence intensity (a.u.)
10,AAGCCCACAGAACCACGCGCTCGTTAGCCTCCTCGTTCCGCGGAGTCACCTAGTGCAG,8230 fluorescence intensity (a.u.)
11,GGGGCTTGGAGTGACGTTTGCTACTACTGACGGATTTTCACGGAGTCACCTAGTGCAG,10400 fluorescence intensity (a.u.)
12,AATTCGCCGTCGTCGTCTTCTTCTTCCACCTCGGGAAGTCCGGAGTCACCTAGTGCAG,9600 fluorescence intensity (a.u.)
13,AAAAATGCTTCTCCGGTCACCATCCACCGCCACCGCCACCCGGAGTCACCTAGTGCAG,8320 fluorescence intensity (a.u.)
14,CCCTTTCTTTCATGTTGACCTCGTCACCCAACAACAACAACGGAGTCACCTAGTGCAG,13100 fluorescence intensity (a.u.)
15,TTCTCGAGTTCCGGTCCGCTTTGATTTTATACTTTTGGGGCGGAGTCACCTAGTGCAG,10100 fluorescence intensity (a.u.)
16,ATTTTATTTTTAGAATGAGGGGTTGCCATATTTGCTTGTTCGGAGTCACCTAGTGCAG,8670 fluorescence intensity (a.u.)
17,ACGGTCACATGGCTATACAATTGACGGTATGATTTTTTTTCGGAGTCACCTAGTGCAG,9060 fluorescence intensity (a.u.)
18,TGTCCAGTCTCCGCTCGCTATATCCGCTCCCGCGCGACTCCGGAGTCACCTAGTGCAG,14600 fluorescence intensity (a.u.)
19,CCTGCAGCCGCCGCCGTCAGGTCTCGCCTCCGCCGCACTCCGGAGTCACCTAGTGCAG,8820 fluorescence intensity (a.u.)
20,CTCTTTTTTTTCTCCGTAATGTTTAATTCAATACTATAATCGGAGTCACCTAGTGCAG,8940 fluorescence intensity (a.u.)
21,ATCCGTTGACTTCTCCCTATCTTCTCTCTTTCTTAATTTCCGGAGTCACCTAGTGCAG,14900 fluorescence intensity (a.u.)
22,ACTTCGCTGTTGTGCTTGTCGGGTTTGTGTTCGAAGCCTTCGGAGTCACCTAGTGCAG,10100 fluorescence intensity (a.u.)
23,TTCGGTGTACTTTTTCCATTCTAATCAGGTTTCGTCGAGCCGGAGTCACCTAGTGCAG,8950 fluorescence intensity (a.u.)
24,CCGGTGGGGTGGGGAATTCGGCGGAGGAAGACGACGACGACGGAGTCACCTAGTGCAG,9250 fluorescence intensity (a.u.)
25,GCTCATTTTTTTTCCCACATATATATGTATACTTTGATATCGGAGTCACCTAGTGCAG,9590 fluorescence intensity (a.u.)
26,GCCGGATCCAGATCTCCACCGCCTCGCCTCGCCGCGCCGCCGGAGTCACCTAGTGCAG,10400 fluorescence intensity (a.u.)
27,TTTGATGTTAATTGATGCTCTATGTTCTGTCAAGTCATTGCGGAGTCACCTAGTGCAG,8350 fluorescence intensity (a.u.)

# Retrieved one by one from the list above, 3 records:
row,Sequence,binding signal
1,CATTGGGTTGGGAATGATCTTTGTACTCCCTCTGTCCCATCGGAGTCACCTAGTGCAG,11400 fluorescence intensity (a.u.)
9,ACTCCCTGATCTTTAGCTAAACCTTTCATTCTCAGGTTATCGGAGTCACCTAGTGCAG,10700 fluorescence intensity (a.u.)
14,CCCTTTCTTTCATGTTGACCTCGTCACCCAACAACAACAACGGAGTCACCTAGTGCAG,13100 fluorescence intensity (a.u.)

# Following part.

row,Sequence,binding signal
1,GCTCTGACTTGTGCTTATAACCATATACACTGGCATTCACCGGAGTCACCTAGTGCAG,8200 fluorescence intensity (a.u.)
2,ATGTACTAATCTCCTTTTCTGTGTTAGACGTGCCAATGTTCGGAGTCACCTAGTGCAG,8670 fluorescence intensity (a.u.)
3,CCTCTGTTTCGCAACCATACTTTGAATAACGTGCCATATACGGAGTCACCTAGTGCAG,10300 fluorescence intensity (a.u.)
4,CTACAGATCTGTAGCCCACTGCTCTTCTCTCTCTTCCTTTCGGAGTCACCTAGTGCAG,8080 fluorescence intensity (a.u.)
5,TGGGGCAAAATTTGTGTTAATTAGCTCAGGCTGCATTCACCGGAGTCACCTAGTGCAG,8380 fluorescence intensity (a.u.)
6,TTCCGTCTAAGGCATAGTTCATATTCTTATTGCCCACATTCGGAGTCACCTAGTGCAG,8710 fluorescence intensity (a.u.)
7,TTTCGACCACCTTCATGGTCCATCCACATCATCCTTCTCACGGAGTCACCTAGTGCAG,8110 fluorescence intensity (a.u.)
8,AACCTTTTTTCTATAGTTTGTTCATGCCGTTATAATATAGCGGAGTCACCTAGTGCAG,9120 fluorescence intensity (a.u.)
9,ACTTGCTGCCTGTTTTTCTTGTGCGTATGCAGTATACTAACGGAGTCACCTAGTGCAG,10900 fluorescence intensity (a.u.)
10,TTGATCTTCTTGTAAGCAACGCCATCCATTCACTAATCCACGGAGTCACCTAGTGCAG,8640 fluorescence intensity (a.u.)
11,TTCTTTTCGAAGATGCAACAGGCTTGGTTATCGATATATTCGGAGTCACCTAGTGCAG,8100 fluorescence intensity (a.u.)
12,CTCAATCTCGCATATACCCTGGTACCGACGATCCCCATACCGGAGTCACCTAGTGCAG,9840 fluorescence intensity (a.u.)
13,TCATGATATATCCCGTATAATATTCCGTCGAATTCACTATCGGAGTCACCTAGTGCAG,10100 fluorescence intensity (a.u.)
14,TCACCGAAAAGCTTGTCCTGTTCTCCAATGTTACCTTTCACGGAGTCACCTAGTGCAG,9860 fluorescence intensity (a.u.)
15,TACATCGTCAAGTTCAACTTCATCAACTGCGATATTACCCCGGAGTCACCTAGTGCAG,9100 fluorescence intensity (a.u.)
16,CTCTTCCAGCTTCAATCCCACTGACAATCACACACACGACCGGAGTCACCTAGTGCAG,12600 fluorescence intensity (a.u.)
17,ATTTCTCCTTTTGCTTTTGGTCACAGACTCACTGCCACAGCGGAGTCACCTAGTGCAG,8300 fluorescence intensity (a.u.)
18,AAATTGCTTACCGATCTAGTACTAGTACTATATCTTCATTCGGAGTCACCTAGTGCAG,8340 fluorescence intensity (a.u.)
19,CTCTTTTTATCCACCTATTTATTCTTATATAGATAGTATCCGGAGTCACCTAGTGCAG,8540 fluorescence intensity (a.u.)
20,ACTGTCTGCACGTACGCCACTCTACACAGTACGCACCGCACGGAGTCACCTAGTGCAG,8570 fluorescence intensity (a.u.)
21,TTCTTTCTCCAGAGCCTGGGTCAGGTATGACCTGCTGTTCCGGAGTCACCTAGTGCAG,8670 fluorescence intensity (a.u.)
22,TTTCTTCCAACAATGGACATGGTTTTACCGTTTTTTTTCCCGGAGTCACCTAGTGCAG,9250 fluorescence intensity (a.u.)
23,ATAAAATTTGTCATCTTCTGTTCCTTTTTACTGACAACACCGGAGTCACCTAGTGCAG,9990 fluorescence intensity (a.u.)
24,GAACACACCCTATGTCCCTATCTGTGGATTGCCAGTGCGACGGAGTCACCTAGTGCAG,10100 fluorescence intensity (a.u.)
25,TCACGCCAGCCGCCTCTTCCTGTGCTCTCGACGCCCGTCGCGGAGTCACCTAGTGCAG,8960 fluorescence intensity (a.u.)
26,AGTTTCTCTATGCTTAAGTTTTTTTTTCTTATTTTGCTTTCGGAGTCACCTAGTGCAG,11300 fluorescence intensity (a.u.)
27,AAGGGGAGAGTGTAGGGGCAAGGAAGGCGGCGTACAGATCCGGAGTCACCTAGTGCAG,10200 fluorescence intensity (a.u.)
